Experimental data as given in publication PMC4993455 (PLoS ONE, 2016).

Target: T1, recombinant human methionine adenosyltransferase α2 (MATα2) (human, UniProt P31153 1-395)
T1 construct: human MATα2, pT7.7-MAT2A including the human MAT2A ORF; also called pT7.7-MAT2A; MATα2 homo-oligomers; source: extracts also named for the pull-down
Experiment: pull-down; Glutathione-Sepharose loaded with GST-PDRG1 or truncated forms and washed; incubated 1 hour at 4°C with recombinant MATα2 or MATβ alone (purified, 100 μg; extracts also named in the methods) plus excess GST extract; blots with anti-MATα2 and anti-MATβ
Details: both partners purified

B1: GST-ΔC-PDRG1 (domain or fragment, rat)
chain: GIPEFLCGTMVSPEADRVLRYLVEVEELAEAVLSDKRQIVDLDTKRNQNREGLRALQKDPSVSEDVMVCFGNMFIKMPHLKTKEMIQKDQEHLDKEIERLRSQLKVKVNRLLEAQ
notes: 9 amino acid linker between GST and PDRG1, as in pGEX-PDRG1 from which this plasmid was made; rat PDRG1 with a new stop codon at position 321-323 of the ORF; also called pGEX-ΔC-PDRG1; source: E. coli BL21(DE3) Codon Plus, soluble extract loaded on Glutathione-Sepharose; not shown: GST, N-terminal, kept
B1: binds.
